Laboratory results taken from paper PMC12313235.
No constants are given. Whether binding was seen depends on the method and setting. In cells and extracts the contact can be indirect. Some binding calls cover weakened binding; strength is not graded here.

Protein sequences, listed by entry. Tags and fused reporters are not part of them.
UniProt O00487: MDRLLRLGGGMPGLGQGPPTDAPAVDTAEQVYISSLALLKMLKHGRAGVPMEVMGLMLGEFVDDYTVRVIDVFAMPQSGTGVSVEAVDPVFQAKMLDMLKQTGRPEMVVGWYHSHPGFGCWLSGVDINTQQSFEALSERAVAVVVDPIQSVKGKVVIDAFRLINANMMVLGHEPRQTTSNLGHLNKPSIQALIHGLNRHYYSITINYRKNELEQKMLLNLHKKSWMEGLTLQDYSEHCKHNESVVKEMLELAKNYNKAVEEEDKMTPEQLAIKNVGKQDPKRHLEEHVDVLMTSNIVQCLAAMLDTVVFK
UniProt Q16186: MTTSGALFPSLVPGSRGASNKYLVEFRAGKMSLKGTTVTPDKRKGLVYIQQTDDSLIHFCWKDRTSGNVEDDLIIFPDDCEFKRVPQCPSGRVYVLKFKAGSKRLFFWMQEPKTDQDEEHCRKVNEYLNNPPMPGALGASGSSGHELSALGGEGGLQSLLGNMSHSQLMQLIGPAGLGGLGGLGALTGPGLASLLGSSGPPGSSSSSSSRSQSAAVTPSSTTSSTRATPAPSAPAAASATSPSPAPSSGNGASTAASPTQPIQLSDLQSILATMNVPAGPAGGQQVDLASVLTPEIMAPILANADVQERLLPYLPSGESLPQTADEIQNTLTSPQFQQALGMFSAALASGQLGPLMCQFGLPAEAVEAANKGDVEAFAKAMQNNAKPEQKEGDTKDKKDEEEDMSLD

Target: Rpn11 with a purification tag at the C-terminus (human) (UniProt O00487)
Assay: pull-down; 26S proteasome purified from HEK293 cells by the purification tag at the C-terminus of Rpn11; Western blot of Rpn1, Rpn10 and Rpn13 in the preparation

## Rpn13 (from UniProt Q16186 1-407)
  binding: binds
